Measurements: PubChem BioAssay AID1347423 (Functional Genomics Laboratory (NCATS/FGL), 2020)
The whole screen tested about 52,000 sequences, of which about 210 (0.4%) were called active.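 How the source made its calls: active means gene whose silencing raises cell survival under the drug, median off-target-corrected z-score across its silencing RNAs 2 or more; inactive means the rest.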 This is one part of the list.

experiment: Resistance to Poly (ADP-Ribose) Polymerase inhibitor: Gene Identification via Genome-wide siRNA Screen; settings: mouse BRCA2 R2336H ES cells, olaparib, CellTiter-Glo viability; hits give high values
Method in brief: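 Genome-wide siRNA screen (3 siRNAs/gene, 20 nM) in mouse ES cells carrying hypomorphic BRCA2 R2336H; olaparib 500 nM added 48 h post-transfection, CellTiter-Glo viability 72 h later. Normalized to plate-median negative control; MAD z-scores, gene median, seed-adjusted.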

Sequence | z-score
GGAAAACAUAAGGCAGUCUTT against Arl6ip2 | inactive: -0.45
CCCUCAACCAUUGUUCGAGTT against Rasal1 | inactive: 0.517
GGUUGCACUUUUUCAUAGUTT against Bcl2l2 | active: 2.83
GGAAGAAGACACAAAAAAUTT against Dscr1l2 | inactive: 0.66
GGUGUAUGGUCUCAACUUUTT against Enah | inactive: 0.603
GGCAAAAGUGGUUAUUGAATT against Itga6 | active: 3.02
GGAGGUGGAUGAAGUAUUUTT against Nudt8 | inactive: 1.97
CGAGGUCAAUUUUAGAGAGTT against Tceb1 | inactive: -0.816
GGAAAUUGCCAGUAAGGUGTT against Sdh1 | inactive: -0.465
GGACUGUGGAUGAGUCCGUTT against Dnmbp | inactive: -2.13
GGAUAAGAGCAUCUCUUCATT against Sdhd | inactive: 0.514
UCAGCGAGCUUUAACCUUUTT against Olfr1028 | inactive: 0.731
CCUCCGGUCUUAUCAUGCATT against Sec61a1 | inactive: -1.27
CCGCACCAGGGAAAAUGCUTT against Crym | inactive: 1.29
GGACCAAUAAACCUAGAACTT against Dact1 | inactive: 1.65
CGGUACUUCAUUGUAAUUUTT against Slc20a2 | inactive: -0.0929
GGUCGUUAAAAAAGAUGUGTT against 0610039J04Rik | inactive: -1.15
GGAGCUGGAGAGAUGUUAGTT against D10Ertd641e | inactive: -2.89
GGUUCCACAGUGGCAAAUGTT against V1ri7 | inactive: -0.665
GGACAAACCUUGGAAGAUUTT against 2410075B13Rik | inactive: 0.667
GGCAUAUGCUGAUUAUAGATT against Ankrd5 | inactive: 0.787
GCCUGACUUUAAUGAAGAATT against 6030443O07Rik | inactive: 0.356
CGGAGAGCCUUCCAUAUGATT against Ndufb8 | inactive: -0.0787
CCCAGGUCCUACCUUCUUUTT against 8430432M10Rik | inactive: -0.47
GCAGGGACUAUCAGAGUUCTT against D430018E03Rik | inactive: 0.959
GCCUCAAACCAUCAUACUUTT against Ppp1r13b | inactive: 0.376

3 entries drawn at random from those above, as already listed:
Sequence | z-score
GGACUGUGGAUGAGUCCGUTT against Dnmbp | inactive: -2.13
GGAGCUGGAGAGAUGUUAGTT against D10Ertd641e | inactive: -2.89
GGAAGAAGACACAAAAAAUTT against Dscr1l2 | inactive: 0.66

Additional records follow.

Sequence | z-score
GCCUUUGAGAGCAGCCAGATT against 0610043B10Rik | inactive: -0.266
GGCAGAAUUACAUUUAACATT against Grik2 | inactive: 0.355
GGCCACAACAGAGAUUAAATT against Bank1 | inactive: 0.221
GGAGUUGAUUGAAAUCAUCTT against Atp5c1 | inactive: -1.13
GCAAAAGUGUAUCAUGAUGTT against Olfr1052 | inactive: -0.189
GGACUUGGCUCCUUACCUGTT against G431004K08Rik | inactive: -0.996
GGCUCUUUACAGAUAUUCCTT against 2810404F18Rik | inactive: 0.493
GGGAUAUGAAAUCAUUUUCTT against Cyld | inactive: 0.393
GGCUGAAAAUAUUUUCAGATT against Garnl3 | inactive: 0.354
GGUCAGAACCCUAAAGACCTT against Tbcd | inactive: -0.807
GCAUACGUGUUCAAUGGUGTT against Ppef2 | inactive: 0.993
GGCUCUGAGCUACAUCUUUTT against Trex2 | inactive: 1.08
GGCACAAUUAACAAGAAAATT against Pfn2 | inactive: -0.401
GGUUAUUUUACAUGAGUACTT against Il15 | inactive: -1.71
GGCAUUCAAACCUCUCGUGTT against Dcn | inactive: 0.695
GGAUGAACUUUCCUAAGUUTT against R75581 | inactive: -1.85
CCUCAUUGUAGUCACCCUCTT against Olfr91 | inactive: 1.62
UCGAGUGAAGCAGUCUCCATT against 5730507A09Rik | inactive: 0.0395
GGAACCCAACAUUGCCAAGTT against Ier3 | inactive: -0.51
GCGGACUGUUUUGAUACAUTT against Papd1 | inactive: -0.835
CCUAGAGAACUUUCUUCUUTT against Olfr385 | inactive: 0.586
GGAAAUCGAUUCUCAUGAUTT against St6gal2 | inactive: 1.29
GGCCGGAGCUUACGAUUUUTT against Camk2d | inactive: -1.11
GCCAUACACAGUGGCAUAATT against BC052046 | inactive: -2.02
GGAGACAGUGGUAUUUUGATT against Birc5 | inactive: -1.51
GCUGCAUAGAAUGACACGATT against Pip5kl1 | inactive: -0.122

Sequence | z-score
GGAAAACACUUUAAACCAGTT against Afg3l1 | inactive: -1.99
GCUAUGGAACAGUCUGUCCTT against Clecsf5 | inactive: 2.28
GGAGGAACCCAAGUAGCCUTT against Serf2 | inactive: -0.252
CCAGGUGGAGUCCAUCUUCTT against Acacb | inactive: 1.68
GGAUCAACAUGGUCUCCUCTT against 1700095N21Rik | inactive: -1.08
GGAUUUCAAUAGGCUCUCUTT against Rnf19 | inactive: -0.193
GGAGUUGAAAGCUCUGCUCTT against S100a15 | inactive: 0.776
GGAGGUAAAGAUCAUGUCATT against Ddr1 | inactive: 0.596
GGAUGAAGGCCAUUCAAACTT against Hnrpd | inactive: 1.47
GGGUUACGCCUUCAUUAAUTT against Sf3b4 | inactive: -2.58
CCUUGGACUGAUAUUAGCUTT against Dtx3 | inactive: -2.03
GGAAGAACCCUGCUACAUCTT against Mrpl37 | inactive: -0.0162
GGACAUGUCGGAUGGCUUCTT against P4ha1 | inactive: 0.93
GGUGCAGAAGCUCAAGUUCTT against Cpne2 | inactive: 2.17
GCCAUUGAUUGAACUCUCCTT against Pip5k1b | inactive: 0.565
CGGAAUGAUUCUGACUAAUTT against Mmp7 | inactive: 2.28
GCAUUUAAGUGUUGCAUUGTT against C1qtnf3 | inactive: 0.651
GGCAGAAAAGAAGAAGAAUTT against Ktn1 | inactive: -1.8
GCACACCUACCACAACAUGTT against S100a11 | inactive: -1.01
GGAAGGACUGUCAAAUGGCTT against 1110030J09Rik | inactive: -0.906
CCUUGGCCAAUCUCCACAATT against 2810004N20Rik | inactive: -1.5
GGAAAAACGAUACUUGAUUTT against Gria3 | inactive: -0.0788
GGCACUAUGUUGAAAAAAUTT against 4732452J19Rik | inactive: -1.12
GGCAAGAAAUACAAAGGAUTT against Pik4cb | inactive: -0.754
GGAUAUGACCCUAGAUUUATT against Gpm6b | inactive: 1.08
CGCACGAAGCUCUUUGUGUTT against BC022145 | inactive: -0.477

Sequence | z-score
GGCGACCCUGACUUCUAUATT against Spon1 | inactive: -0.873
GCAAUGAGUACUAUCAUACTT against Gnal | inactive: -0.649
CCUACCGUUACCUAAGUGATT against Kcnj5 | inactive: 0.0775
GGGAGAUUGAGAACUUUGCTT against Gpx7 | inactive: -2.06
GGUUGCAUGGCACAAGUCUTT against Olfr1213 | inactive: 1.02
GGAAGCAGACAAUUGGUUUTT against MGC27863 | inactive: -0.328
GCGAAGUUCCUGAGAUGGATT against Icsbp1 | inactive: -0.279
GGUUUCGACUCUGAUGUCATT against Rai12 | inactive: -1.97
GGUUGUAGGAAGAAGAGAATT against Olfr957 | inactive: -1.73
GGCAGUUACAAAGUCUGUUTT against Timm8b | inactive: -2.25
CGACAUUUUACUAAGAGAUTT against 5133401N09Rik | inactive: -0.306
CCCGCAACAAUAAACCUGATT against Yif1b | inactive: 0.665
GGUACCUGAGGAAAAGGUUTT against Nalp2 | inactive: -0.44
CCAUUUCCUACGCAAAAUGTT against Olfr1423 | inactive: 1.68
GGACCAGUUAGAGCAAAUGTT against 2300002M23Rik | inactive: -0.679
GGCAGUCUCAGGUUAUCUCTT against AW610627 | inactive: 1.08
CCGUGGACCUAGGACUCAUTT against Olfr622 | inactive: -1.87
GCAGGAGAACUUUUUUAGUTT against Hus1 | inactive: 0.159
CCUUCAUAUCCCAGUAAAATT against 5730494N06Rik | inactive: -1.44
GGUAUGUCCGACAUUUAACTT against Irx5 | inactive: 0.502
GGAUAUAGAAGAUGAAGAATT against 2810408A11Rik | inactive: -0.299
GCCGCUACCUAUGAUGUCCTT against Kcne4 | inactive: 0.615
CGGACAAAUGCUGUGCGUUTT against Kcnd1 | inactive: 0.605
CGCACAUGAAGCCACAUAUTT against Plekhb1 | inactive: -1
GGUUAUAGACAAGAUCGAUTT against Comp | inactive: 0.263
GCUAUUGACAUAAUGAGGCTT against Nfe2l3 | inactive: -0.195
